Test results reported in publication PMC7819943, “Rice protein-binding microarrays: a tool to detect cis-acting elements near promoter regions in rice”.
The other results are listed elsewhere or left out.

Sequences of proteins named here, by UniProt entry; tags and fusion partners are left off.
UniProt Q0JBA9, entry or part of it: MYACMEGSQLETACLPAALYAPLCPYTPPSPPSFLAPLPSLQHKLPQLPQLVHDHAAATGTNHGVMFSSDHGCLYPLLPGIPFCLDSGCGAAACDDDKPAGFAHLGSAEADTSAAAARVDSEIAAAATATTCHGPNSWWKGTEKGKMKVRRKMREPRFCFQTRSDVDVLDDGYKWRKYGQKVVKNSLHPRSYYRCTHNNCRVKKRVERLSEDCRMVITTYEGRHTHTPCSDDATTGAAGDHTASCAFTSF

Target: OsWRKY34 (Oryza sativa, UniProt Q0JBA9 1-250)
Experiment: protein-binding microarray (RPBM); PBS, 2% BSA, 51.3 ng/ul salmon testes DNA, 50 uM zinc acetate, 200 nM TF, 25 C, 1 h; high values mean tight binding
Conditions: protein: recombinant; tags: N-terminal polyhistidine and DsRed monomer fusion (pET32a); label: CyDye5-dUTP incorporated in the synthesized complementary strand; 3' TTTTT single-stranded linker to array surface; dsDNA, one strand shown
Method in brief: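 A custom Agilent array was converted to double-stranded form by primer extension with Cy5-dUTP and blocked with 2% BSA. Protein at 200 nM in PBS with 2% BSA, salmon testes DNA and 50 µM zinc acetate was applied for 1 h at 25 °C, followed by washing. The proteins were polyhistidine–DsRed N-terminal fusions of transcription factors, expressed in E. coli BL21-CodonPlus and Ni–NTA-purified. The binding signal is per-feature fluorescence intensity (arbitrary units) from an Axon 4000B scanner.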

Question: How did the binding signal turn out when “CCATTTCTTTTTATGTTTTCTGAATAATTTTTCTTCTTCTCGGAGTCACCTAGTGCAG” was run?
Answer: The binding signal was 9030 fluorescence intensity (a.u.).

Question: With “CGGTTCGGTTCTTCGGTTCGGTCTTATTTTGCCCACCCCTCGGAGTCACCTAGTGCAG” as the sequence, how does the binding signal read?
Answer: The binding signal was 9320 fluorescence intensity (a.u.).

Question: With “GTGGGGAAAGATAAGTGTGTGTGGGTGTGGCAATAAAGGTCGGAGTCACCTAGTGCAG” as the sequence, how does the binding signal read?
Answer: Its binding signal is 8920 fluorescence intensity (a.u.).

Question: How did the binding signal turn out when “TTCCGCCTTCTGGCGAGGTTGTGCGGTGGGGATGGGCCGGCGGAGTCACCTAGTGCAG” was run?
Answer: Its binding signal is 10500 fluorescence intensity (a.u.).

Question: Which binding signal does the source give for “GCCCCTGTTGACTGTTGTTCACATCTCTTTCAGATATTTTCGGAGTCACCTAGTGCAG” here?
Answer: The binding signal was 11700 fluorescence intensity (a.u.).

Question: How did the binding signal turn out when “TGAATTTAAGGAGGTTACCACGGTATTTACGTTACCGTTCCGGAGTCACCTAGTGCAG” was run?
Answer: The binding signal was 8540 fluorescence intensity (a.u.).

Question: “GAAATGAGGGGTGGGATTGGGATTGGGATTGGAAAATGAACGGAGTCACCTAGTGCAG” was tested. Which binding signal did it give?
Answer: Its binding signal is 11800 fluorescence intensity (a.u.).

Question: For “CTATTGTTTGCAAGAATTTTGAGTTTTTTTTCCTGATTTCCGGAGTCACCTAGTGCAG”, which binding signal is on record?
Answer: Its binding signal is 10500 fluorescence intensity (a.u.).

Question: With “GCCCGCATTTTGCCATTCATCCTCCACCTCTCGCCGCCAACGGAGTCACCTAGTGCAG” as the sequence, how does the binding signal read?
Answer: The binding signal was 8460 fluorescence intensity (a.u.).

Question: With “GGTCTTCCTACTTCTTACCTGCGTCTTGCTGCACATCGTCCGGAGTCACCTAGTGCAG” as the sequence, how does the binding signal read?
Answer: The binding signal was 9580 fluorescence intensity (a.u.).

Question: How did the binding signal turn out when “CTGCGTTTGTGCGGGTGCGGGTGCGGGTGCTAGACTGCTACGGAGTCACCTAGTGCAG” was run?
Answer: Its binding signal is 8770 fluorescence intensity (a.u.).

Question: With “AAAAAGACAAACCCTGGTTTCCGTGCGCAATGTTTGACCGCGGAGTCACCTAGTGCAG” as the sequence, how does the binding signal read?
Answer: Its binding signal is 8640 fluorescence intensity (a.u.).

Question: For “AGCACTTATTTAGTTCAGGCAATACTATAATTTTCTTTATCGGAGTCACCTAGTGCAG”, which binding signal is on record?
Answer: Its binding signal is 8630 fluorescence intensity (a.u.).

Question: With “GAATTATTATTTATTTTGTTTATCATTTGCTTTATTATCACGGAGTCACCTAGTGCAG” as the sequence, how does the binding signal read?
Answer: The binding signal was 9240 fluorescence intensity (a.u.).

Question: “GCTTTTGGCTGTGGTGGGTGCTTGTGGGTGGAGAGAGAGACGGAGTCACCTAGTGCAG” was tested. Which binding signal did it give?
Answer: The binding signal was 19300 fluorescence intensity (a.u.).

Question: With “TTTTTTATATTTGTAACTGTTGTCTCTGTTTTCAGGAATTCGGAGTCACCTAGTGCAG” as the sequence, how does the binding signal read?
Answer: The binding signal was 8890 fluorescence intensity (a.u.).

Question: Which binding signal does the source give for “ATCAACTTTTAGTCTCATGTGCTATCCCCTTTTATTATTACGGAGTCACCTAGTGCAG” here?
Answer: The binding signal was 8300 fluorescence intensity (a.u.).

Question: How did the binding signal turn out when “ATCCCAACCGAATCTAGTTCCTTGCTACAACTGACCAAACCGGAGTCACCTAGTGCAG” was run?
Answer: Its binding signal is 8340 fluorescence intensity (a.u.).

Question: With “CTGTACTCGCGCCTGCCGCCGCCCGCGTCGTCCGCCATCGCGGAGTCACCTAGTGCAG” as the sequence, how does the binding signal read?
Answer: Its binding signal is 8280 fluorescence intensity (a.u.).

Question: “AGAGCTTAATTTGGTATGTGTGTGTATATATATATATATACGGAGTCACCTAGTGCAG” was tested. Which binding signal did it give?
Answer: The binding signal was 8150 fluorescence intensity (a.u.).

Question: For “GACGGCCACCTAGACCCCATTCTACAGCTCCATCTTCACCCGGAGTCACCTAGTGCAG”, which binding signal is on record?
Answer: The binding signal was 12200 fluorescence intensity (a.u.).

Question: How did the binding signal turn out when “AACTTTTTTTTTTCTCTACTGCTACTGACAAGTCAAAAACCGGAGTCACCTAGTGCAG” was run?
Answer: Its binding signal is 9220 fluorescence intensity (a.u.).

Question: Which binding signal does the source give for “GACCCCATTTACACGCGCCGTCGACCGCATCTCATCTCATCGGAGTCACCTAGTGCAG” here?
Answer: The binding signal was 10800 fluorescence intensity (a.u.).

Question: For “CCCGATCCATCCATCTCCTTCCTTGCATCTACTATTTTATCGGAGTCACCTAGTGCAG”, which binding signal is on record?
Answer: Its binding signal is 14500 fluorescence intensity (a.u.).

Question: With “ACCACCTAATCTAAATTATTATTTAGTCCCTCCTTCCCAACGGAGTCACCTAGTGCAG” as the sequence, how does the binding signal read?
Answer: The binding signal was 8290 fluorescence intensity (a.u.).

Question: “TAATATTATGTTGCTTTTACTCTGCTAGTTATCTTCATGTCGGAGTCACCTAGTGCAG” was tested. Which binding signal did it give?
Answer: The binding signal was 9590 fluorescence intensity (a.u.).

Question: With “CATGCTAGTTTCTTTATGTTGCACACAAGTGTTTCTTGATCGGAGTCACCTAGTGCAG” as the sequence, how does the binding signal read?
Answer: Its binding signal is 10400 fluorescence intensity (a.u.).

Question: With “CAGAGCTTTGTTTGTCGTCCTAGATCACTAATTTTTCAGACGGAGTCACCTAGTGCAG” as the sequence, how does the binding signal read?
Answer: Its binding signal is 8120 fluorescence intensity (a.u.).

Question: Which binding signal does the source give for “CAAGAAGGATCTTACATGTGGGTTGCACTTAACTATTTGCCGGAGTCACCTAGTGCAG” here?
Answer: Its binding signal is 9540 fluorescence intensity (a.u.).

Question: With “CCGCCGACCATCTCCCGCCGCCTCCCCACCCCACCCCACGCGGAGTCACCTAGTGCAG” as the sequence, how does the binding signal read?
Answer: The binding signal was 8060 fluorescence intensity (a.u.).

Question: Which binding signal does the source give for “TGTTTGACATCGTTGACTTTTTAACACATGTTTCACTGTTCGGAGTCACCTAGTGCAG” here?
Answer: The binding signal was 36000 fluorescence intensity (a.u.).

Question: With “GTGATGCAGGCAAGAAACCCGGGCACACACATGGCTATTCCGGAGTCACCTAGTGCAG” as the sequence, how does the binding signal read?
Answer: The binding signal was 8260 fluorescence intensity (a.u.).

Question: How did the binding signal turn out when “TTCTTTCTCTTTTTTTTTTTACATCCTTCAAATTGTCATACGGAGTCACCTAGTGCAG” was run?
Answer: The binding signal was 8360 fluorescence intensity (a.u.).

Question: “CTGGGGTTCTATCATAGCGGACTCAGATTAATATTTCACACGGAGTCACCTAGTGCAG” was tested. Which binding signal did it give?
Answer: The binding signal was 8850 fluorescence intensity (a.u.).

Question: For “CATTGTTCCATGGCTACAACAAGCCAACAGCTATAATATTCGGAGTCACCTAGTGCAG”, which binding signal is on record?
Answer: Its binding signal is 8170 fluorescence intensity (a.u.).

Question: “CGAACTCGCCGCGGATTCCTTGCCCTCCACGCCGCAAACCCGGAGTCACCTAGTGCAG” was tested. Which binding signal did it give?
Answer: The binding signal was 8820 fluorescence intensity (a.u.).

Question: “GGTTACACTGATATGTGGGATCCATCTGTTCTTTTTTAATCGGAGTCACCTAGTGCAG” was tested. Which binding signal did it give?
Answer: Its binding signal is 9380 fluorescence intensity (a.u.).

Question: “TATATATACACGTCTATACCCACACGTTGATTAATGCGAGCGGAGTCACCTAGTGCAG” was tested. Which binding signal did it give?
Answer: Its binding signal is 8770 fluorescence intensity (a.u.).

Question: Which binding signal does the source give for “TTTCGATCCAATGGTAATTTTCAGGTTTCTATTTCCACCACGGAGTCACCTAGTGCAG” here?
Answer: The binding signal was 8660 fluorescence intensity (a.u.).

Question: Which binding signal does the source give for “GATCTCTCATTTTCATTTTCCTTCTTTTCCCTAGAGAAAGCGGAGTCACCTAGTGCAG” here?
Answer: Its binding signal is 8430 fluorescence intensity (a.u.).

Question: With “TGCCGATGGTTTGGTTTCCTCTTCCTCACTTTTTCTTTCTCGGAGTCACCTAGTGCAG” as the sequence, how does the binding signal read?
Answer: Its binding signal is 8620 fluorescence intensity (a.u.).

Question: Which binding signal does the source give for “CGCGTACACCACCACCGCCTCGCACTTTTCCGCCATTTGTCGGAGTCACCTAGTGCAG” here?
Answer: Its binding signal is 10300 fluorescence intensity (a.u.).
